This data set in a line: Apparent permeability in Caco-2 cells. It is filed as in vitro ADME. Conditions: human. The protocol:
Caco-2 cells (passage no. 41–42) were grown in tissue culture flasks containing Dulbecco’s Modified Eagle Medium supplemented with 20% FBS, 1% nonessential amino acids, and 1% penicillin–streptomycin. […] The culture medium was replaced every other day. On the day of the experiment, the growth medium was discarded, and the attached cells were washed with prewarmed HBSS (pH 7.4) and preincubated with HBSS for 20 min at 37 °C. […] Aliquots (30 μL) of each sample were vortex-mixed with 90 μL of IS solution for 1 min, and then centrifugation was performed at 13,500 rpm at 4 °C for 5 min. Aliquots (5 μL) of the supernatant were injected into the LC-MS/MS for analysis.
In general terms: Passage across Caco-2 layers is used to estimate intestinal permeability.

One may read the Papp A→B as the apparent permeability from the apical to the basolateral side of a cell layer. What is called Papp B→A is how fast a substance crosses the layer from the basolateral side. Consider `CC(C)NCC(O)COc1ccc(CC(N)=O)cc1` (stereo not drawn) [Atenolol], for which, where the note is “Caco-2, pH 7.4”, the Papp A→B at 1 h, 4 µM stood at 0.11 ± 0.01 ×10⁻⁶ cm/s and the Papp B→A at 1 h, 4 µM was 0.11 ± 0.01 ×10⁻⁶ cm/s. Moreover, under “pH 7.4, Caco-2, mean Papp,BA / mean Papp,AB, read-out: ER”, the efflux ratio at 1 h, 4 µM is 0.98.

The values above are taken from PMC11207335, “In Vitro Metabolism and Transport Characteristics of Zastaprazan” (Pharmaceutics, 2024).
